From patent US20160311882A1 (ELI LILLY AND COMPANY, priority 2013, published 2016)
Non-standard residues stand in square brackets, D forms with d. No end group written: not given here. Aib = CC(C)(N)C(=O)O

Assay: general procedure: Fmoc solid-phase peptide synthesis; Fmoc-Rink amide polystyrene resin (Rapp Polymere), approximately 0.68 mmol/g; DIC/HOBt
Conditions: whole synthesis, 220 nm, scale 0.125 mmols, TFA salt converted to acetate salt

## YSQGTFTSDYSKYLD[Aib]KKAQEFVEWLLKTGPSSGAPPKSK-NH2
  final purity (method not given): >95%
